These results are taken from the supplement of paper PMC7824004.

Each structure is given as a SMILES string. The list shows a part of the results. The data scatter; read single values as rough.

The test system of the assay is Candida albicans SN425. The experiment in a line: biofilm OD600 B-score; higher = more biofilm (less inhibition). As to conditions: 10 µM; assay detail: High-throughput adherence inhibition optical density biofilm assay with C. albicans SN425 in RPMI-1640/MOPS pH 7.0, 384-well plates. …. The method, then: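 High-throughput adherence inhibition optical density biofilm assay with C. albicans SN425 in RPMI-1640/MOPS pH 7.0, 384-well plates. Compound (10 µM) was present only during the 90 min adherence step, then washed out, and the biofilm grew 24 h without compound. Biofilm was read as OD600 after removing the media. Scores are the difference from the mean in standard deviations and the plate B-score.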
Regarding `CC(C)(C)NC(=O)CSc1nnc(-c2ccccc2)o1`, the “biofilm OD600 B-score” value was found to be 0.224.
As for `COc1ccccc1-n1c(SCC(=O)c2ccccc2)nc(O)cc1=O`, the figure is -0.802.
The same measure for `COc1cc(Cl)c(S(=O)(=O)NCc2cccnc2)cc1Cl`: -2.15; for `C=COCCNC(=O)Nc1cccc(Cl)c1`: 0.17; for `CN(C)c1ccnc2sc(C(N)=O)c(N)c12`: 0.487.
As for `CC(=O)c1c(C)[nH]n(-c2ccccc2)c1=O`, the figure is 2.4.
In the case of `COCCNC(=O)Cc1ccccc1OC`, the “biofilm OD600 B-score” value stood at 0.049.
In the case of `Cc1cc(S(=O)(=O)Nc2ccncc2)c(C)cc1Br`, the “biofilm OD600 B-score” value was -0.00203.
As for `CS(=O)(=O)Nc1ccccc1C(=O)NC1CCCCC1`, the figure is -0.0212.
The same measure for `CCc1nnc(NC(=O)c2ccoc2C)s1`: 4.65.
The same measure for `CC(=O)c1ccc(N2CCN(C(=O)c3c(F)cccc3F)CC2)c(F)c1`: -3.29.
For `NC(=O)C1CCN(Cc2ccc(Cl)cc2)CC1`, the “biofilm OD600 B-score” value is -1.46.
As for `CC(C)C(=O)Nc1cccc(C(=O)Nc2cccc(O)c2)c1`, the figure is -1.44.
The same measure for `O=C(NCc1ccco1)N1CCOCC1`: -1.3; for `Cc1ccc(N2CC(C(N)=O)CC2=O)cc1C` (stereo not given): 0.552.
With `O=C(Nc1cccc(NC(=O)C2CCCC2)c1)C1CCCC1`, the “biofilm OD600 B-score” value came out at 0.627.
The same measure for `Nc1nncn1C(=O)c1cccc(Cl)c1`: 0.0602; for `CCCc1nc2ccccc2c(=O)n1N`: 2.81; for `Cc1cccc(/C=C/c2ccc3cccc(O)c3n2)c1O`: -3.52.
Consider `O=C(O)CCCC(=O)Nc1ccccc1Br`, for which the “biofilm OD600 B-score” value is -0.982.
The same measure for `OC(COCc1ccc(Cl)cc1)CN1CCOCC1` (stereo not given): 0.803; for `CCN(CC)C(=O)C1CCCN(Cc2ccc(N(C)C)cc2)C1` (stereo not given): -0.101; for `Cc1ccccc1C(=O)N1CCCCC1CO` (stereo not given): -4.77.
`CC(=O)c1c(C)nn2c3ccccc3n(CCN3CCCCC3)c12`: the “biofilm OD600 B-score” value was determined as 1.48.
As for `CCC(CC)C(=O)Nc1ccc(C(C)=O)cc1`, the figure is 1.29; as for `CCC(=O)Nc1cccc(NC(=O)c2cccnc2)c1`, 0.851.
The same measure for `COc1ccccc1/C=C/CN1CCN(C)CC1`: 0.238; for `COc1ccc(NC(=O)Cc2nnc(NC(=O)Nc3ccc(C)cc3)s2)cc1`: -0.935; for `O=C(NCc1ccco1)NC1CCCCC1`: -1.33.
The same measure for `COc1cc(SC)ccc1C(=O)N1CCCC1`: 0.94.
For the compound `O=c1[nH]c2ccccc2n1CCN1CCOCC1`, the “biofilm OD600 B-score” value is 0.0261.
As for `Cc1ccc(C(=O)CSc2nnc(N)s2)c(C)c1`, the figure is 0.0843; as for `CC1CN(C(=O)c2cccs2)C(C)CN1C(=O)c1cccs1` (stereo not given), -0.92.
As for `CC(O)CNc1ncnc2sc3c(c12)CCC3` (stereo not given), the figure is 2.75.
The same measure for `CN(CCC#N)C12CC3CC(CC(C3)C1)C2`: -0.799; for `c1ccc(OCCCN2CCOCC2)cc1`: 2.67.
`CN(CC(O)COc1ccc(F)cc1)C1CCCCC1` (stereo not given): the “biofilm OD600 B-score” value came to 0.746.
Turning to `COc1ccccc1OCC(=O)Nc1ccc(F)c(Cl)c1`, the “biofilm OD600 B-score” value is 1.22.
Consider `CCn1c(=N)c(C#N)cc2c(=O)n3cc(C)ccc3nc21`, for which the “biofilm OD600 B-score” value is -0.632.
Consider `CC(NC(=O)Nc1ccccc1)c1ccccc1` (stereo not given), for which the “biofilm OD600 B-score” value came to 1.85.
